Measurements: article PMC7801519
Results are given in words; binding and its absence hold for the method and conditions named. Binding seen in cells or lysates may run through a third protein. Here binding means that the protein was enriched with, or labelled near, the bait; the list need not be complete. Sequences can lack the tags named with a protein.

Target: T1, Flag-PBK (human) (UniProt Q96KB5)
T1 sequence: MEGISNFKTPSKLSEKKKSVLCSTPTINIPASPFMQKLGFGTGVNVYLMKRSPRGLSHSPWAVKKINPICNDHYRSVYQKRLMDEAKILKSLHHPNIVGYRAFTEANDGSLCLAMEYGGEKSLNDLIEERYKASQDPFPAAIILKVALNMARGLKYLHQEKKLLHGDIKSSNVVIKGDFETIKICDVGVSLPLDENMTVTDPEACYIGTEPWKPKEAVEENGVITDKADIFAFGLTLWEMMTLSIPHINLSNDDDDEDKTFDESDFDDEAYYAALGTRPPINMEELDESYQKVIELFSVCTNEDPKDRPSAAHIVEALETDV
Assay: affinity purification with mass spectrometry; 293T cells transfected with Flag-PBK or vector for 48 h; IP lysis buffer (50 mM Tris-Cl pH 7.4, 150 mM NaCl, 0.5% NP-40, 5 mM EDTA); Flag affinity agarose beads overnight at 4 °C; SDS-PAGE, silver staining, indicated bands to mass spectrometry

B1: MSL1 (male-specific lethal 1 homolog), endogenous in 293T cells (protein, UniProt Q68DK7 1-614)
chain: MTMRSAVFKAAAAPAGGNPEQRLDYERAAALGGPEDEPGAAEAHFLPRHRKLKEPGPPLASSQGGSPAPSPAGCGGKGRGLLLPAGAAPGQQEESWGGSVPLPCPPPATKQAGIGGEPAAAGAGCSPRPKYQAVLPIQTGSLVAAAKEPTPWAGDKGGAASPAATASDPAGPPPLPLPGPPPLAPTATAGTLAASEGRWKSMRKSPLGGGGGSGASSQAACLKQILLLQLDLIEQQQQQLQAKEKEIEELKSERDTLLARIERMERRMQLVKKDNEKERHKLFQGYETEEREETELSEKIKLECQPELSETSQTLPPKPFSCGRSGKGHKRKSPFGSTERKTPVKKLAPEFSKVKTKTPKHSPIKEEPCGSLSETVCKRELRSQETPEKPRSSVDTPPRLSTPQKGPSTHPKEKAFSSEIEDLPYLSTTEMYLCRWHQPPPSPLPLRESSPKKEETVARCLMPSSVAGETSVLAVPSWRDHSVEPLRDPNPSDLLENLDDSVFSKRHAKLELDEKRRKRWDIQRIREQRILQRLQLRMYKKKGIQESEPEVTSFFPEPDDVESLMITPFLPVVAFGRPLPKLTPQNFELPWLDERSRCRLEIQKKQTPHRTCRK
binding: binds
